{"source": "PubChem BioAssay AID540276", "about": "(National Center for Advancing Translational Sciences (NCATS), 2011)", "note": "Screen size: about 300,000 compounds; about 5,400 (1.8%) were called active. This list was built around the results that the source calls inconclusive (neither active nor inactive); the mix of calls is not that of the screen. Calls come from the whole dose curve; tested in HEK293 cells. Where the call is inconclusive, the potency comes from a doubtful curve fit. % is set by controls: 0 for no effect and ±100 for the full control effect; potency is the fitted concentration of half-maximal effect."}
{"test": "qHTS for inhibitors of binding or entry into cells for Marburg Virus", "conditions": "Marburg virus pseudotyped entry inhibition, cell reporter; activity change, negative = inhibition: at 37.8 µM (top of the series) unless noted"}
{"smiles": "CN1CC2(C(=O)c3ccccc3)CN(C)CC(C(=O)c3ccccc3)(C1)C2", "Potency": "inconclusive: 23.1 µM [inhibitor, partial curve, poor fit]"}
{"smiles": "O=c1c2sccc2nc(SCc2ccc([N+](=O)[O-])cc2)n1Cc1ccccn1", "Potency": "inconclusive: 29.1 µM [inhibitor, partial curve, poor fit]"}
{"smiles": "COc1ccc(NC(=O)c2ccccc2F)cc1Cl", "activity change, negative = inhibition": "inactive: -14.6%"}
{"smiles": "COc1ccccc1NC(=O)COc1ccccc1C(=O)Nc1ccccc1", "Potency": "inconclusive: 35.5 µM [inhibitor, single point]"}
{"smiles": "Cc1ccc(OCC(=O)NCC2(N3CCN(C)CC3)CCCCC2)cc1", "Potency": "inconclusive: 22.4 µM [inhibitor, single point]"}
{"smiles": "O=C(COc1cccnc1[N+](=O)[O-])NCCc1ccccc1", "Potency": "inconclusive: 10 µM [inhibitor, partial curve]"}
{"smiles": "COc1ccc(COCC(CC(C)C)N2CCN(C(=O)c3cccc(C(F)(F)F)c3)CCC2=O)cc1", "note": "(stereo not given)", "Potency": "inconclusive: 29.1 µM [inhibitor, single point]"}
{"smiles": "CC(C)(C)c1ccc(/C=C/C(=O)NCCCn2ccnc2)cc1", "Potency": "inconclusive: 0.251 µM [activator, full curve, poor fit]"}
{"smiles": "Cc1cc(N2C3CCC2CC(O)(c2ccc(F)cc2)C3)nc(-c2ccccc2)n1", "note": "(stereo not given)", "Potency": "inconclusive: 29.1 µM [inhibitor, single point]"}
{"smiles": "O=C1NCC(Nc2ccccc2)C(=O)N1", "note": "(stereo not given)", "activity change, negative = inhibition": "inactive: -1.5%"}
{"smiles": "CCOC(=O)C1(Cc2cccc(OC)c2)CCN(C/C=C/c2ccc(OC)cc2)CC1", "Potency": "inconclusive: 2.82 µM [inhibitor, full curve, poor fit]"}
{"smiles": "CC(=O)c1c(C)[nH]c(C(=O)COc2cc(C)ccc2C(C)C)c1C", "Potency": "inconclusive: 12.6 µM [inhibitor, partial curve, poor fit]"}
{"smiles": "O=C(O)CCc1nn2c3ccccc3n(CCO)c2nc1=O", "Potency": "inconclusive: 5.62 µM [inhibitor, single point]"}
{"smiles": "CCOC(=O)C1CCCN(C(=O)c2ccc3c(c2)N(C)C(=O)/C(=C/c2ccccc2Cl)S3)C1", "note": "(stereo not given)", "activity change, negative = inhibition": "inactive: -24.8% [at 46.1 µM]"}
{"smiles": "Cc1nc2c3cccnc3nn2c(C)c1CCC(=O)NCc1ccccc1", "activity change, negative = inhibition": "inactive: 14.2% [at 46.1 µM]"}
{"smiles": "CCCCCCc1cc2cc(C(=O)Nc3cccc(OC)c3)c(=O)oc2cc1O", "Potency": "inconclusive: 3.55 µM [inhibitor, single point]"}
{"smiles": "FC(F)(F)Oc1ccc(Nc2nc3ccccc3o2)cc1", "activity change, negative = inhibition": "inactive: 15.9%"}
{"smiles": "CN(C)CCN(Cc1cccs1)c1ccccn1", "Potency": "inconclusive: 20 µM [inhibitor, partial curve, poor fit]"}
{"smiles": "O=C(N/N=C/c1cccnc1)c1cc(-c2cccs2)nc2ccccc12", "Potency": "inconclusive: 12.6 µM [inhibitor, partial curve, poor fit]"}
{"smiles": "COc1ccccc1Nc1nc(C)nc(N)c1S(=O)(=O)c1ccccc1", "activity change, negative = inhibition": "inactive: -0.977% [at 46.1 µM]"}
{"smiles": "COc1cccc2c(=O)c(SC(F)(F)C(F)C(F)(F)F)c(C)[nH]c12", "note": "(stereo not given)", "activity change, negative = inhibition": "inactive: -8.86%"}
{"smiles": "COc1cc(CNCc2cccs2)ccc1OCc1ccccc1", "activity change, negative = inhibition": "inactive: -84.4%"}
{"smiles": "O=C(CCCN1C(=O)/C(=C\\c2ccco2)SC1=S)Nc1cccc2ccccc12", "Potency": "inconclusive: 0.0517 µM [inhibitor, full curve, poor fit]"}
{"smiles": "Cc1nc(Cl)c(Cl)n1CCOc1ccccc1", "activity change, negative = inhibition": "inactive: -4.26% [at 14.2 µM]"}
{"smiles": "COc1ccccc1-c1coc2c(CN3CCC(C)CC3)c(O)ccc2c1=O", "activity change, negative = inhibition": "inactive: 27.5% [at 46.1 µM]"}
{"smiles": "COC(=O)c1cc2ccsc2n1Cc1cc(=O)n2ccccc2n1", "activity change, negative = inhibition": "inactive: 8.06%"}
{"smiles": "O=C(N/N=C/c1ccc(N2CCOCC2)o1)c1ccccc1[N+](=O)[O-]", "Potency": "inconclusive: 1.58 µM [activator, single point]"}
{"smiles": "O=C(Cn1c(-c2cccs2)cc2cc(F)ccc21)NCCc1ccc(Cl)cc1", "Potency": "inconclusive: 17.8 µM [inhibitor, single point]"}
{"smiles": "O=S(=O)(Nc1ccc(O)c(Sc2nc3ccccc3s2)c1)c1cc(Cl)ccc1Cl", "Potency": "inconclusive: 3.16 µM [inhibitor, single point]"}
{"smiles": "CCN(CC)c1ccc(/C=c2\\sc3nc4ccccc4n3c2=O)c(O)c1", "Potency": "inconclusive: 3.55 µM [inhibitor, partial curve, poor fit]"}
{"smiles": "O=C1CC(O)(C(F)(F)F)Oc2c1ccc1ccccc21", "note": "(stereo not given)", "activity change, negative = inhibition": "inactive: -4.66%"}
{"smiles": "CCC1Oc2ccc(C)cc2N(CC(=O)N(Cc2ccc(C)o2)C2CC(C)(C)NC(C)(C)C2)C1=O", "note": "(stereo not given)", "Potency": "inconclusive: 18.3 µM [inhibitor, single point]"}
{"smiles": "Clc1ccc(-c2nnnn2-c2ccc(Cl)c(Cl)c2)cc1Cl", "Potency": "inconclusive: 11.2 µM [inhibitor, partial curve, poor fit]"}
{"smiles": "COc1ccc(NC(=O)CN(C)C(=O)c2ccc3[nH]c4c(c3c2)CC(C)CC4)cc1", "note": "(stereo not given)", "Potency": "inconclusive: 25.1 µM [inhibitor, single point]"}
{"smiles": "CC(C)c1ccc(NC(=O)CSc2nc(=O)n(CCN3CCOCC3)c3c2CCC3)cc1", "activity change, negative = inhibition": "inactive: -11.2%"}
{"smiles": "COc1ccc(CCNC(=O)c2cccs2)cc1OC", "Potency": "inconclusive: 1.78 µM [activator, partial curve, poor fit]"}
{"smiles": "O=C(c1cc2nc(-c3ccccc3)cc(C(F)(F)F)n2n1)N1CCN2CCCC2C1", "note": "(stereo not given)", "activity change, negative = inhibition": "inactive: 3.21% [at 46.1 µM]"}
{"smiles": "COc1ccc(CC(=O)Nc2ccc(-c3nnc(-c4ccc(C)cc4)o3)cc2)cc1", "Potency": "inconclusive: 29.1 µM [inhibitor, single point]"}
{"smiles": "CC1=NN(C(=O)CCCc2ccccc2)C(O)(C(F)(F)F)C1", "note": "(stereo not given)", "Potency": "inconclusive: 5.62 µM [activator, single point]"}
{"smiles": "CC(C)C(=O)N1CCN(c2ccccc2NC(=O)c2cccc3ccccc23)CC1", "Potency": "inconclusive: 22.4 µM [inhibitor, partial curve, poor fit]"}
{"smiles": "CC(C)Sc1nc(N2CCCC2)c2c(c1C#N)CC(C)(C)OC2", "Potency": "inconclusive: 22.4 µM [inhibitor, partial curve, poor fit]"}
{"smiles": "CCOc1nc2c(c(-c3cccs3)c1C#N)Cc1ccccc1-2", "activity change, negative = inhibition": "inactive: 11.1% [at 46.1 µM]"}
{"smiles": "CC1CC(C)CN(C(=S)NC2CCCCC2)C1", "note": "(stereo not given)", "Potency": "inconclusive: 8.2 µM [activator, partial curve, poor fit]"}
{"smiles": "O=C(Nc1ccccc1)C1CC(=O)N(C2CCCCC2)C1", "note": "(stereo not given)", "activity change, negative = inhibition": "inactive: 14.1%"}
{"smiles": "COC(=O)[C@@H]1CCCN1Cc1c(C(=O)N2CCCCC2)nc2c(C)cccn12", "Potency": "inconclusive: 25.1 µM [inhibitor, single point]"}
